No constants are given. Whether binding was seen depends on the method and setting. Binding seen in cells or lysates may run through a third protein. Some entries that bind do so weakly or less than the wild type.

The chains behind the UniProt entries cited, without tags or fusion partners.
UniProt P11388: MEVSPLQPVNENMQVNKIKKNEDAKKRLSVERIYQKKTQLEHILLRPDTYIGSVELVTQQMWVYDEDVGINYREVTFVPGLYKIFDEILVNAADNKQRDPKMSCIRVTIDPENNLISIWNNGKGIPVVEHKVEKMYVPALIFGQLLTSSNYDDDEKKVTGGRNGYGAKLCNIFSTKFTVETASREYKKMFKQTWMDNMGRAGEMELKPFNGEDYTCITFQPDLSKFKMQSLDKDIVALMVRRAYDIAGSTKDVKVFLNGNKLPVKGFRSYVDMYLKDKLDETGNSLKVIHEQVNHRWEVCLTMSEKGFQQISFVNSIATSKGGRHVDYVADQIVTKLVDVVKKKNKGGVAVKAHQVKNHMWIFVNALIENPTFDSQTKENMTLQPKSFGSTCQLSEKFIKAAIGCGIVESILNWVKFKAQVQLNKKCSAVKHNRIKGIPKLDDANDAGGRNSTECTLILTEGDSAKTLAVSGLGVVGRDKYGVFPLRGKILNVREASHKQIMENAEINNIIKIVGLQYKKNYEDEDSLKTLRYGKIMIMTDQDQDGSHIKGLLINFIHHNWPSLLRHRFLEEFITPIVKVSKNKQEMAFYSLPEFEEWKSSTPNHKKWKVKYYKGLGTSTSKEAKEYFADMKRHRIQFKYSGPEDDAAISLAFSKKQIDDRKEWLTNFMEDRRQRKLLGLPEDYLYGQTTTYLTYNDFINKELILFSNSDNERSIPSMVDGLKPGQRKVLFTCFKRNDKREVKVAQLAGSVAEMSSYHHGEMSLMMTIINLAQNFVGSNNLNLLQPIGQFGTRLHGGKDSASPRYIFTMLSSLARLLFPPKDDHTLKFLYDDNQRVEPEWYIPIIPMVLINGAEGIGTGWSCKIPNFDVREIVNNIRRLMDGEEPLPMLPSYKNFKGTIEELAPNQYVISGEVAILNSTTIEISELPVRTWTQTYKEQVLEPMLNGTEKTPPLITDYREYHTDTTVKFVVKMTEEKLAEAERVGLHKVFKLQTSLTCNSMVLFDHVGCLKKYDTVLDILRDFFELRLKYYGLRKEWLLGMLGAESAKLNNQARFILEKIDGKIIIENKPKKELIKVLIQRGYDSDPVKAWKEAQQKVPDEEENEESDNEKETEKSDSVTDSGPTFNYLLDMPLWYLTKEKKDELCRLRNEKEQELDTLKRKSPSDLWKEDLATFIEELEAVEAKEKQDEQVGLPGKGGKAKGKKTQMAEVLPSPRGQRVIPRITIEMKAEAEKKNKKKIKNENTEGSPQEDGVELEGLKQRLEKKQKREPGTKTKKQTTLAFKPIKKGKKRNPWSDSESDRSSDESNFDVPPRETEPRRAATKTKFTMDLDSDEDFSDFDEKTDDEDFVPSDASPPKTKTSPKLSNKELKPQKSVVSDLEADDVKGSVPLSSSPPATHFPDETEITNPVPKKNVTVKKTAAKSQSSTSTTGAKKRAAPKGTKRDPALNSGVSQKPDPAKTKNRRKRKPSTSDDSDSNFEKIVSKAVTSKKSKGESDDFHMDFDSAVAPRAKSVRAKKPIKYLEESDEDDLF
UniProt Q80XJ2: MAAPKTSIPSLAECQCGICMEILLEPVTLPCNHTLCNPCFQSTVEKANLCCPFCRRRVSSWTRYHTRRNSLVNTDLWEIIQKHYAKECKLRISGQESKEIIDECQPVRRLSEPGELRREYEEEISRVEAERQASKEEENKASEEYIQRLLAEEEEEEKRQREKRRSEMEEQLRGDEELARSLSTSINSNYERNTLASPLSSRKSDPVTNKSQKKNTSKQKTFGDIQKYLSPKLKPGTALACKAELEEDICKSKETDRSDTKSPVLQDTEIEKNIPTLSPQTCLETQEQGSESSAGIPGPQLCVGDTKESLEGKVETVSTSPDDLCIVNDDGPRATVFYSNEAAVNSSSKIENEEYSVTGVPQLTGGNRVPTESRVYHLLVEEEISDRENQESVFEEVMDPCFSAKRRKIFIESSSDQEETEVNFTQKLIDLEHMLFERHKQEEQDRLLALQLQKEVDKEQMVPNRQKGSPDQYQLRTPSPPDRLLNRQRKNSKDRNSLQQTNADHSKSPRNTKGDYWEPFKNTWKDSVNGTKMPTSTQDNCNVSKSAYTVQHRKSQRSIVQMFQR
UniProt Q8IYW5: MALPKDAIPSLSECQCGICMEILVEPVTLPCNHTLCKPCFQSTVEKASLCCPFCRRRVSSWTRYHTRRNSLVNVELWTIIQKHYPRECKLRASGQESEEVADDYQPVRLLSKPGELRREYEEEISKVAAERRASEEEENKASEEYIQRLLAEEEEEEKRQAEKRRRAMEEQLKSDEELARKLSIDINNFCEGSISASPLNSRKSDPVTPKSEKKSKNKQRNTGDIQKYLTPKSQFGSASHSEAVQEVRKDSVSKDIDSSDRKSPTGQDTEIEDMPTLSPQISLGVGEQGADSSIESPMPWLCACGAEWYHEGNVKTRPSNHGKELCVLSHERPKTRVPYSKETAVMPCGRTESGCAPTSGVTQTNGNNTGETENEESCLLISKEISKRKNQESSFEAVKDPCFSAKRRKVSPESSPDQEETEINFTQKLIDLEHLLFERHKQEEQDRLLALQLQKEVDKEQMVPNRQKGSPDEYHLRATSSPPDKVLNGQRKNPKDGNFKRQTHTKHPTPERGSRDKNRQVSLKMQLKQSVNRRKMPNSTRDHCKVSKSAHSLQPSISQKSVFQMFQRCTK

These results are taken from article PMC5007378.

One assay has as its target Flag-tagged TOP2α (UniProt P11388). Kind of assay: co-IP; HEK293T co-transfected with Flag- and HA-tagged proteins, harvested 48 h later; lysis in 50 mM Tris-HCl pH 7.5, 150 mM NaCl, 0.5% Triton-X100; IP with anti-Flag (Fig. 7a,b: anti-Flag and anti-HA), immunoblot. (In western blotting, separated proteins are transferred to a membrane and probed.)
The target of assay [1] is endogenous TOP2α (HEK293T cells) (human (endogenous in HEK293T)) (UniProt P11388). The experiment in a line: co-IP; endogenous proteins; TOP2α, RNF168 and control IgG immunoprecipitates from HEK293T cells, immunoblot.

“HA-tagged RNF168 (from UniProt Q80XJ2 1-565)”: the binding result with Flag-tagged TOP2α is on record as “binds”.

Consider “endogenous RNF168 (HEK293T cells) (from UniProt Q8IYW5 1-571)”, for which the binding entry in assay [1] is recorded as “binds”.
